Reference: article PMC11300717

Chains of the proteins cited; added tags and fusions are not shown.
UniProt Q15003: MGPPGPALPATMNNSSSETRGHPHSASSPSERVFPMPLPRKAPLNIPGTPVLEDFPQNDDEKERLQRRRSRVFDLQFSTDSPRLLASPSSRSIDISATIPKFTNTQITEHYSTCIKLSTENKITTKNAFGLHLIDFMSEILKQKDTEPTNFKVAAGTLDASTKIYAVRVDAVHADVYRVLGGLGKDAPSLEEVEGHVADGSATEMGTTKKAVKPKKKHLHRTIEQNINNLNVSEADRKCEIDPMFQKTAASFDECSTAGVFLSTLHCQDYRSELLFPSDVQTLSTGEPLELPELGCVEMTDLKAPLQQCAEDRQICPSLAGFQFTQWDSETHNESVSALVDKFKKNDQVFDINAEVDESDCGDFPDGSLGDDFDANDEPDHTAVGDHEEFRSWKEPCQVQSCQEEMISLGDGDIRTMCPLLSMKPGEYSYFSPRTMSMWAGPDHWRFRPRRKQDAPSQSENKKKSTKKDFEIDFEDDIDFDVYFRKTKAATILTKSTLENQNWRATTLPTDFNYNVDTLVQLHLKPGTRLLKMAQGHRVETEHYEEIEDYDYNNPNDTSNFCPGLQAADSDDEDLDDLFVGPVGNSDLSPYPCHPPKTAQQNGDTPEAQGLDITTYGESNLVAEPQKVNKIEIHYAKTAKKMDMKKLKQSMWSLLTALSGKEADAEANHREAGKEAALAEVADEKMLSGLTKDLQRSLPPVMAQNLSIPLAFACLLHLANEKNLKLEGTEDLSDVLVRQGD

Molecular target: NCAPH (non-SMC condensin I complex subunit H) (human (endogenous in HeLa)) (UniProt Q15003)
Test: affinity purification with mass spectrometry; HeLa total protein precipitated on agarose beads with anti-NCAPH antibody or IgG; SDS-PAGE, silver staining; the 50-70 kDa region that differed most was excised and analysed by mass spectrometry

Row | binding | Binder
1 | binds | SHMT2 (protein, UniProt P34897 30-504) NAAQTQTGEANRGWTGQESLSDSDPEMWELLQREKDRQCRGLELIASENFCSRAALEALGSCLNNKYSEGYPGKRYYGGAEVVDEIELLCQRRALEAFDLDPAQWGVNVQPYSGSPANLAVYTALLQPHDRIMGLDLPDGGHLTHGYMSDVKRISATSIFFESMPYKLNPKTGLIDYNQLALTARLFRPRLIIAGTSAYARLIDYARMREVCDEVKAHLLADMAHISGLVAAKVIPSPFKHADIVTTTTHKTLRGARSGLIFYRKGVKAVDPKTGREIPYTFEDRINFAVFPSLQGGPHNHAIAAVAVALKQACTPMFREYSLQVLKNARAMADALLERGYSLVSGGTDNHLVLVDLRPKGLDGARAERVLELVSITANKNTCPGDRSAITPGGLRLGAPALTSRQFREDDFRRVVDFIDEGVNIGLEVKSKTAKLQDFKSFLLKDSETSQRLANLRQRVEQFARAFPMPGFDEH
2 | binds | EPHX1 (protein, UniProt P07099 1-455) MWLEILLTSVLGFAIYWFISRDKEETLPLEDGWWGPGTRSAAREDDSIRPFKVETSDEEIHDLHQRIDKFRFTPPLEDSCFHYGFNSNYLKKVISYWRNEFDWKKQVEILNRYPHFKTKIEGLDIHFIHVKPPQLPAGHTPKPLLMVHGWPGSFYEFYKIIPLLTDPKNHGLSDEHVFEVICPSIPGYGFSEASSKKGFNSVATARIFYKLMLRLGFQEFYIQGGDWGSLICTNMAQLVPSHVKGLHLNMALVLSNFSTLTLLLGQRFGRFLGLTERDVELLYPVKEKVFYSLMRESGYMHIQCTKPDTVGSALNDSPVGLAAYILEKFSTWTNTEFRYLEDGGLERKFSLDDLLTNVMLYWTTGTIISSQRFYKENLGQGWMTQKHERMKVYVPTGFSAFPFELLHTPEKWVRFKYPKLISYSYMVRGGHFAAFEEPELLAQDIRKFLSVLERQ
3 | binds | CCT2 (protein, UniProt P78371 1-535) MASLSLAPVNIFKAGADEERAETARLTSFIGAIAIGDLVKSTLGPKGMDKILLSSGRDASLMVTNDGATILKNIGVDNPAAKVLVDMSRVQDDEVGDGTTSVTVLAAELLREAESLIAKKIHPQTIIAGWREATKAAREALLSSAVDHGSDEVKFRQDLMNIAGTTLSSKLLTHHKDHFTKLAVEAVLRLKGSGNLEAIHIIKKLGGSLADSYLDEGFLLDKKIGVNQPKRIENAKILIANTGMDTDKIKIFGSRVRVDSTAKVAEIEHAEKEKMKEKVERILKHGINCFINRQLIYNYPEQLFGAAGVMAIEHADFAGVERLALVTGGEIASTFDHPELVKLGSCKLIEEVMIGEDKLIHFSGVALGEACTIVLRGATQQILDEAERSLHDALCVLAQTVKDSRTVYGGGCSEMLMAHAVTQLANRTPGKEAVAMESYAKALRMLPTIIADNAGYDSADLVAQLRAAHSEGNTTAGLDMREGTIGDMAILGITESFQVKRQVLLSAAEAAEVILRVDNIIKAAPRKRVPDHHPC

Results are given in words; binding and its absence hold for the method and conditions named. In cells and extracts the contact can be indirect. Here binding means that the protein was enriched with, or labelled near, the bait; the list need not be complete.
